The target in the assay is neuronal human α7 nicotinic acetylcholine receptor expressed in GH4C1 cells (human) (UniProt P36544). Kind of assay: radioligand binding; only the binder purified.

Chains of the proteins cited; added tags and fusions are not shown. Residues count along the entry.
UniProt P36544, residues 23-502: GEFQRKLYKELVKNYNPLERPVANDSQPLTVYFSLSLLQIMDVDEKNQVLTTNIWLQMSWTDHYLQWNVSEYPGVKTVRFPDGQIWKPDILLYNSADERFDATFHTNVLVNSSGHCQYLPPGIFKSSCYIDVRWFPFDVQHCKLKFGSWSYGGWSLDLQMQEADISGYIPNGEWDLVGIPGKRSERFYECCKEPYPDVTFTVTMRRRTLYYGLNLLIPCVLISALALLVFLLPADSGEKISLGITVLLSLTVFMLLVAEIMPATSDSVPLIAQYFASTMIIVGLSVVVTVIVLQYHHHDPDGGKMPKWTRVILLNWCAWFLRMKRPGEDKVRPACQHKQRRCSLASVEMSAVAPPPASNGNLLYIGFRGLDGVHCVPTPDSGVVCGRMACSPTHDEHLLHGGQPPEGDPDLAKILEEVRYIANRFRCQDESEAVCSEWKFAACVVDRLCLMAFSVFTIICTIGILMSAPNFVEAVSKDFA
UniProt P60615, residues 22-95: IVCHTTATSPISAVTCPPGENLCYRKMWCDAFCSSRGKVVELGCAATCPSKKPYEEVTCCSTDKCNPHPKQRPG

This is an account of results in publication PMC8671107 (Frontiers in Molecular Biosciences, 2021).

No constants are given. Whether binding was seen depends on the method and setting. Some results given as binding are weak or reduced against the parent protein; the word gives no strength.

Turning to “^125I-α-bungarotoxin (from UniProt P60615 22-95)”, the binding result is listed as “binds”.
